# Reference: article PMC9138245
# Chains of the proteins cited; added tags and fusions are not shown.
# UniProt P15311: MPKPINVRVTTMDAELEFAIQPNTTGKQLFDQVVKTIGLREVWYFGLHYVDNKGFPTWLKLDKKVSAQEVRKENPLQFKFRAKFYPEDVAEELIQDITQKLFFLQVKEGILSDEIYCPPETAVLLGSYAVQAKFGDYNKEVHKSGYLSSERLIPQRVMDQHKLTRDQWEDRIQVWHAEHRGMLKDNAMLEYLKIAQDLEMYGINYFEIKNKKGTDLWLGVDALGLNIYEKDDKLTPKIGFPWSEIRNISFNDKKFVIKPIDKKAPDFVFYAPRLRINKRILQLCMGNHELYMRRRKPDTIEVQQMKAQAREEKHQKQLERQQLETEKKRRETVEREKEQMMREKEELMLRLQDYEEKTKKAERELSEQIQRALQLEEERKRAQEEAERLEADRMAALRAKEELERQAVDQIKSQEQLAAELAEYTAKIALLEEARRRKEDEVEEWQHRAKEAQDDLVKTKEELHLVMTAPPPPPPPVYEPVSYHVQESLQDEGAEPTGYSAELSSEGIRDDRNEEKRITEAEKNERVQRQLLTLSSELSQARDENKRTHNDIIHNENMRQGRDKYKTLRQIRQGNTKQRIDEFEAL
# Results are given in words; binding and its absence hold for the method and conditions named. In cells and extracts the contact can be indirect. Some entries that bind do so weakly or less than the wild type.
# B1: Dbl (guanine nucleotide exchange factor) (protein, UniProt P10911 1-925)
# chain: MAEANPRRGKMRFRRNAASFPGNLHLVLVLRPTSFLQRTFTDIGFWFSQEDFMLKLPVVMLSSVSDLLTYIDDKQLTPELGGTLQYCHSEWIIFRNAIENFALTVKEMAQMLQSFGTELAETELPDDIPSIEEILAIRAERYHLLKNDITAVTKEGKILLTNLEVPDTEGAVSSRLECHRQISGDWQTINKLLTQVHDMETAFDGFWEKHQLKMEQYLQLWKFEQDFQQLVTEVEFLLNQQAELADVTGTIAQVKQKIKKLENLDENSQELLSKAQFVILHGHKLAANHHYALDLICQRCNELRYLSDILVNEIKAKRIQLSRTFKMHKLLQQARQCCDEGECLLANQEIDKFQSKEDAQKALQDIENFLEMALPFINYEPETLQYEFDVILSPELKVQMKTIQLKLENIRSIFENQQAGFRNLADKHVRPIQFVVPTPENLVTSGTPFFSSKQGKKTWRQNQSNLKIEVVPDCQEKRSSGPSSSLDNGNSLDVLKNHVLNELIQTERVYVRELYTVLLGYRAEMDNPEMFDLMPPLLRNKKDILFGNMAEIYEFHNDIFLSSLENCAHAPERVGPCFLERKDDFQMYAKYCQNKPRSETIWRKYSECAFFQECQRKLKHRLRLDSYLLKPVQRITKYQLLLKELLKYSKDCEGSALLKKALDAMLDLLKSVNDSMHQIAINGYIGNLNELGKMIMQGGFSVWIGHKKGATKMKDLARFKPMQRHLFLYEKAIVFCKRRVESGEGSDRYPSYSFKHCWKMDEVGITEYVKGDNRKFEIWYGEKEEVYIVQASNVDVKMTWLKEIRNILLKQQELLTVKKRKQQDQLTERDKFQISLQQNDEKQQGAFISTEETELEHTSTVVEVCEAIASVQAEANTVWTEASQSAEISEEPAEWSSNYFYPTYDENEEENRPLMRPVSEMALLY
# Molecular target: phosphorylated ezrin (Thr567) (human (endogenous in dHL60)) (UniProt P15311)
# Experiment: co-IP; lysate (RIPA) of BifA-treated dHL60 cells; immunoprecipitation with anti-p-ezrin (T567) monoclonal antibody; blot for Dbl and p-ezrin
binder,measurement,value
B1,binding,binds
